# PubChem BioAssay AID1224829, NIAID – 2016
# Screen: 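Genes needed for LPS-driven NF-kappaB p65 nuclear entry in mouse macrophages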 (follow-up of hits)
# Cells: mouse RAW264.7 G9 macrophage reporter cells
# Knock-down reagent: single siRNA against mouse genes, 100 nM
# Timing: 2 days of siRNA knock-down, then 40 min of LPS before fixing
# Challenge: LPS (Salmonella minnesota R595) at 10 ng/ml
# Measurement: 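High-content images after 40 min LPS exposure; GFP-p65 nucleus to surrounding ring signal ratio, normalised to plate median and non-targeting control wells, expressed as z-score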
# Reading the numbers: p65 translocation z-score and gene median z-score, per vendor: higher = more nuclear NF-kappaB p65 after LPS
# Active means: 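An siRNA is called active when the mean z-score of its two replicates is above 2 or below -2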
# Calls: active = changed p65 translocation (either direction); inactive = no clear change
# Here is one part, drawn at random, of about 3,800 reagents tested. 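Calls cover raised and lowered translocation; gene median uses one vendor's three siRNAs; qiagen siRNAs acted more weakly than ambion siRNAs.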 A number with no mark means an inactive call. The numbers tell different reagents against one gene apart. Reagent sequences are not shown.
The opening 2 records as a preview:
target gene,reagent,siRNA vendor or control pool,"p65 translocation z-score, replicate mean","p65 translocation z-score, replicate 1","p65 translocation z-score, replicate 2","gene median z-score, per vendor"
Trmt9b,1,ambion single siRNA,0.164,0.781,-0.453,-0.0508
Trmt9b,2,ambion single siRNA,0.0214,-0.092,0.135,-0.0508

Results, from the start:
target gene,reagent,siRNA vendor or control pool,"p65 translocation z-score, replicate mean","p65 translocation z-score, replicate 1","p65 translocation z-score, replicate 2","gene median z-score, per vendor"
Trmt9b,1,ambion single siRNA,0.164,0.781,-0.453,-0.0508
Trmt9b,2,ambion single siRNA,0.0214,-0.092,0.135,-0.0508
Trmt9b,3,ambion single siRNA,-0.848,-1.69,-0.00957,-0.0508
Trmt9b,4,qiagen single siRNA,-1.32,-2.43,-0.215,-1.6
Trmt9b,5,qiagen single siRNA,-2.79 (active),-2.79,,-1.6
Trmt9b,6,qiagen single siRNA,-1,-0.405,-1.6,-1.6
Ifna4,1,ambion single siRNA,2.85 (active),2.34,3.36,-3.13
Ifna4,2,ambion single siRNA,-5.97 (active),-8.2,-3.74,-3.13
Ifna4,3,ambion single siRNA,-3.91 (active),-5.3,-2.51,-3.13
Ifna4,4,qiagen single siRNA,0.268,1.39,-0.858,-0.858
Ifna4,5,qiagen single siRNA,-0.715,-0.0547,-1.38,-0.858
Ifna4,6,qiagen single siRNA,-1.75,-1.75,,-0.858
Nav1,1,ambion single siRNA,1.95,2.59,1.3,0.599
Nav1,2,ambion single siRNA,0.599,1.19,0.00955,0.599
Nav1,3,ambion single siRNA,-3.83 (active),-2.73,-4.94,0.599
Nav1,4,qiagen single siRNA,2.22 (active),2.33,2.11,-0.509
Nav1,5,qiagen single siRNA,-0.925,-0.168,-1.68,-0.509
Nav1,6,qiagen single siRNA,-2.2 (active),-0.85,-3.55,-0.509
Pabpn1,1,ambion single siRNA,,,,-1.48
Pabpn1,2,ambion single siRNA,-2.56 (active),-3.78,-1.35,-1.48
Pabpn1,3,ambion single siRNA,-1.48,-1.48,,-1.48
Pabpn1,4,qiagen single siRNA,-2.53 (active),-1.52,-3.55,-1.65
Pabpn1,5,qiagen single siRNA,2.33 (active),1.11,3.54,-1.65
Pabpn1,6,qiagen single siRNA,-3.78 (active),-1.78,-5.79,-1.65
